A short description of the assay: qHTS Assay for Modulators of Lamin A Splicing. The settings on record: HeLa LMNA splicing GFP/RFP minigene ratio, 48 h. In outline: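 S3 HeLa stable clones carrying a lamin A-EGFP splicing minigene plus DsRed2 were seeded at 600 cells/well in Opti-MEM with 2% FBS, pin-dosed and incubated 48 h at 37°C. Acumen cytometry (488 nm) gave the GFP/RFP total-intensity ratio.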

Where [1] appears, read: measured here: RFP viability control channel.
Setting [2] is: measured here: GFP splicing reporter channel.

This note sets out measurements from PubChem BioAssay AID1487 (National Center for Advancing Translational Sciences (NCATS), 2009).

Some of the results follow. Shown are side measurements of this screen, not its main read-out; they come without a call. The list favours compounds with an active or inconclusive main result. The note in brackets gives the kind of curve behind each potency; many fits are weak.

Usually AC50 stands for the concentration at which the activity in the assay is half-maximal. With `O=C(COC(=O)C12CC3CC(CC(O)(C3)C1)C2)Nc1ccccc1OC(F)F`, under setting [1], the AC50 is 17.8 µM [rising, single point].

`COc1ccc(CCNc2nnc(Sc3nnnn3-c3ccccc3)s2)cc1OC`: the AC50 under setting [1] was 5.01 µM [rising, single point].

Take `COCCN1C=C2C(=O)C(C)(OC(=O)C3CCCC3)C(=O)C(c3ccccc3)=C2C=C1CCCC(=O)OC` (centres undefined): the AC50 is 0.0224 µM [falling, full curve] under setting [2] and 0.02 µM [falling, full curve, poor fit] under setting [1].

Consider `CCn1ncc(C2=NOC(C(=O)Nc3cccc(C(C)=O)c3)C2)c1C` (centres undefined), for which the AC50 was 4.47 µM [rising, partial curve] under setting [2] and 10 µM [rising, partial curve] under setting [1].

For `Cc1ccc(NC(=O)C(C)N2C(=O)c3ccccc3C2=O)cc1` (centres undefined), the AC50 under setting [1] is 3.55 µM [rising, partial curve].

`N#C/C(=C\c1ccc(O)c(O)c1)C(=O)Nc1ccccc1`: the half-maximal activity concentration (AC50) under setting [2] was 10 µM [falling, partial curve] and the AC50 under setting [1] was 7.94 µM [falling, partial curve].

Consider `O=[N+]([O-])c1ccc(Nc2nc(NCCO)nc(N3CCCC3)n2)cc1`, for which the AC50 under setting [1] was 11.2 µM [rising, partial curve].

As to `COc1ccc2[nH]cc(CCNC(=S)NC3CCCC3)c2c1`, the AC50 by setting is: under setting [2], 0.708 µM [rising, partial curve]; under setting [1], 5.01 µM [rising, partial curve].

Regarding `CCOC(=O)c1cc2cc3ccccc3cc2[nH]1`, the AC50 under setting [1] is 0.0562 µM [falling, full curve].

On to `Cc1cccc(Cc2c(C)nc3c(C(=O)NCc4ccco4)cnn3c2C)c1`, for which the AC50 is, setting by setting: under setting [2], 11.2 µM [rising, partial curve]; under setting [1], 11.2 µM [rising, partial curve].

As for `NC(=O)CSc1nc(C2CC2)nc2sc3c(c12)CCCC3`, under setting [1], the AC50 is 0.00316 µM [falling, full curve, poor fit].

Turning to `CC1(c2ccc([N+](=O)[O-])c(CS(=O)(=O)c3ccccc3)c2)OCCO1`, the AC50 under setting [2] was 1.26 µM [rising, partial curve, poor fit].

`COc1ccc(CC(=O)Nc2ccc(-c3nc4ccccc4s3)cc2Cl)cc1`: the AC50 under setting [1] was 12.6 µM [falling, partial curve, poor fit].

In the case of `O=c1c2ccccc2nc(COc2ccccc2)n1/N=C/c1c[nH]c2ccccc12`, under setting [1], the AC50 is 15.8 µM [rising, single point].

For `COC(=O)[C@@]1(Cc2ccc(F)cc2)[C@H]2c3cc(C(=O)N(C)C)n(Cc4ccc(OC)c(OC)c4)c3C[C@H]2CN1C(=O)c1ccccc1`, the AC50 runs as follows: under setting [2], 10 µM [rising, single point]; under setting [1], 14.1 µM [rising, single point].

Consider `O=C(Oc1ccc(Br)cc1C(=S)N1CCCC1)c1ccccc1F`, for which, under setting [2], the AC50 is 5.01 µM [rising, full curve, poor fit].

For the molecule `COc1cc(C(=O)Sc2ccc(C)cc2)cc(OC)c1OC`, the AC50 was 28.2 µM [falling, single point] under setting [2] and 35.5 µM [falling, single point] under setting [1].

As for `CCCN(CCC)c1nn2c(=O)c(C(=O)NCc3cccc(OC)c3)cnc2s1`, the AC50 under setting [1] was 0.0708 µM [falling, full curve, poor fit].

In the case of `CCOC(=O)c1c(C)[nH]c(=S)c(C#N)c1-c1ccc(Cl)cc1`, the AC50 under setting [1] is 35.5 µM [rising, single point].

Turning to `Cc1ccc(NC(=O)C2(NC(=O)c3ccccn3)CCCCC2)cc1Br`, the AC50 under setting [1] is 10 µM [rising, partial curve, poor fit].

For the molecule `COc1ccc(CNC(=O)C2CCN(C(=O)[C@@H](CC(C)C)NC(=O)OC(C)(C)C)CC2)cc1`, the AC50 under setting [1] is 3.98 µM [falling, single point].

Consider `CCOc1cccc(-c2nnc3sc(C4CCCCC4)nn23)c1`, for which the AC50 under setting [2] is 10 µM [rising, partial curve, poor fit] and the AC50 under setting [1] is 17.8 µM [rising, single point].

`Cc1ccc(-c2noc(CCC(=O)Nc3ccccc3C)n2)cc1`: the AC50 reads like this: under setting [2], 3.98 µM [rising, full curve, poor fit]; under setting [1], 8.91 µM [rising, partial curve].

With `CCOC(=O)c1sc(Nc2nc3c(OC)cccc3s2)cc1C`, under setting [2], the AC50 is 25.1 µM [falling, single point].

In the case of `COc1ccc(CN(CCC(c2ccc(F)cc2)C2CCOC(C)(C)C2)C(=O)c2ccco2)cc1` (centres undefined), the AC50 is 12.6 µM [falling, partial curve] under setting [2] and 12.6 µM [falling, partial curve] under setting [1].

With `Cc1cc2nc(C3CCN(Cc4nnnn4Cc4ccccc4)CC3)[nH]c2cc1C`, under setting [2], the AC50 was 15.8 µM [falling, single point].

On to `Cc1cc(N2CCN(C(=O)c3ccco3)CC2)n2ncc(-c3ccccc3)c2n1`, for which the AC50 under setting [1] is 15.8 µM [rising, partial curve].

With `Cc1sc(-c2cc3ccccc3oc2=O)nc1-c1ccc(Cl)cc1`, the AC50 under setting [1] was 35.5 µM [rising, single point].

`C=CCN(CC=C)CCOc1ccccc1F`: under setting [2], the AC50 was 0.00355 µM [falling, full curve, poor fit].

`O=C(CN(Cc1ccccc1)C(=O)c1ccc2c(c1)OCCO2)NCc1ccc2c(c1)OCO2`: the AC50 under setting [2] is 8.91 µM [rising, single point].

As for `COC/C=C/C1=CC2=CC(=O)C(C)(OC(=O)c3cnc4ccccc4n3)C(=O)C2=CN1C(CO)CO` (centres undefined), under setting [1], the AC50 is 0.00708 µM [falling, full curve, poor fit].

In the case of `O=C(Nc1ccc(S(=O)(=O)Nc2ncccn2)cc1)C1=NN(c2ccccc2)C(=O)CC1`, the AC50 runs as follows: under setting [2], 0.0794 µM [rising, partial curve, poor fit]; under setting [1], 0.112 µM [rising, full curve, poor fit].

For the molecule `COc1ccc(Cc2noc(-c3ccc(OC)c(OC)c3)n2)cc1OC`, the AC50 under setting [1] is 20 µM [rising, single point].

Regarding `CC(=O)Nc1ccc(S(=O)(=O)N2CCSC2c2ccc(Cl)cc2)cc1` (centres undefined), under setting [1], the AC50 is 11.2 µM [rising, partial curve].

On to `Cc1ccc(C)c(CSc2c(C(C)C)cnc3c2c(=O)n(C)c(=O)n3C)c1`, for which the AC50 is 1.78 µM [rising, partial curve] under setting [2] and 2.82 µM [rising, full curve] under setting [1].

For the molecule `Cn1c(C(=O)N2CCC(C(=O)N3CCN(Cc4ccc5c(c4)OCO5)CC3)CC2)cc2sccc21`, the AC50 under setting [1] was 12.6 µM [rising, partial curve].

`CC(C)N1CSC(=S)N(Cc2ccccc2)C1`: the AC50 under setting [2] is 0.501 µM [falling, partial curve].

With `O=C(/C=C/c1ccccc1)Nn1c(-c2cccs2)nc2ccccc2c1=O`, the AC50 under setting [1] is 2.82 µM [rising, full curve, poor fit].

On to `COc1ccc(N2CCN(C(CNC(=O)c3ccc(C)cc3)c3ccc4c(c3)OCO4)CC2)cc1` (centres undefined), for which the AC50 was 20 µM [falling, partial curve] under setting [2] and 22.4 µM [falling, partial curve, poor fit] under setting [1].

For the molecule `Cc1cccc(C(=O)Nc2ccccc2SCC(=O)Nc2ccc(C)c(Cl)c2)c1`, the AC50 under setting [2] is 35.5 µM [rising, single point] and the AC50 under setting [1] was 20 µM [rising, single point].

For the molecule `O=C(CCn1c(SCC(=O)c2ccccc2)nc2ccccc2c1=O)NCc1ccc(F)cc1`, the half-maximal activity concentration (AC50) is, setting by setting: under setting [2], 2.82 µM [falling, partial curve]; under setting [1], 3.16 µM [falling, partial curve].

On to `CN1C(=O)NC(c2ccccc2)(C(F)(F)F)S/C1=C(/C#N)c1nnc(N2CCOCC2)n1-c1ccccc1` (centres undefined), for which the AC50 under setting [1] is 12.6 µM [rising, partial curve, poor fit].

Take `Cc1ccc2nc(CSc3nnc4ccccn34)cc(=O)n2c1`: the AC50 under setting [2] is 0.631 µM [rising, partial curve].

Take `COc1ccc(CCCC(=O)O)c(C)c1`: the AC50 under setting [2] is 14.1 µM [falling, single point].

As to `Oc1ccc(-c2csc(-c3ccccc3)n2)cc1O`, the AC50 under setting [1] is 31.6 µM [rising, single point].

On to `CC(C)c1ccc(S(=O)(=O)N2CCN(C(=O)c3ccco3)CC2)cc1`, for which the AC50 was 0.794 µM [falling, partial curve, poor fit] under setting [2] and 1.41 µM [falling, full curve, poor fit] under setting [1].

With `COc1ccc2nc(Nc3nc(C)c(C(C)=O)s3)sc2c1`, the AC50 reads like this: under setting [2], 5.62 µM [rising, full curve]; under setting [1], 6.31 µM [rising, full curve].

Regarding `Cc1cc(NC(=O)Nc2cccc(C(F)(F)F)c2)no1`, the AC50 reads like this: under setting [2], 20 µM [rising, partial curve]; under setting [1], 35.5 µM [rising, single point].

Consider `CC(C)=CCOc1ccc(/C=C/C(=O)c2ccc(OCC=C(C)C)cc2OCC(=O)O)cc1`, for which the concentration at half-maximal activity (AC50) under setting [2] is 10 µM [falling, partial curve, poor fit].

For the molecule `COc1ccc(S(=O)(=O)Nc2cc(C(=O)NC3CCCCCC3)ccc2N2CCOCC2)cc1`, the AC50 under setting [2] was 35.5 µM [rising, single point] and the AC50 under setting [1] is 15.8 µM [rising, single point].

Regarding `O=[N+]([O-])c1cccc(-n2cccc2/C=N/Nc2nc(N3CCCCC3)nc(N3CCCCC3)n2)c1`, the AC50 under setting [1] is 0.708 µM [falling, full curve].

For `N/C(=N\OC(=O)c1ccc(Br)cc1)c1ccncc1`, under setting [1], the AC50 was 35.5 µM [rising, partial curve, poor fit].

Turning to `CC(C)Cc1nc2oc3c(=O)[nH]cnc3c2c2c1CCC2`, the AC50 under setting [2] is 10 µM [rising, partial curve, poor fit].

With `O=C(CSc1ncn[nH]1)Nc1ccc2c(c1)CCC2`, the AC50 is 6.31 µM [rising, partial curve, poor fit] under setting [2] and 35.5 µM [rising, single point] under setting [1].
